The values are deposited in ChEMBL (CHEMBL3988442, “University of Dundee, Small-Polar-MMV Screening Library” (2021)).

The filed quantity is “Percent Effect” (%).
The record does not define 0% and 100%; most values in the screen are far below 50% and negative numbers occur (in some assays of this library far below -100).
The compounds are a random part of those screened.
Two or more numbers in one place are separate tests of the same structure; such repeats can differ widely.
A dash means the value is not listed here; it may have been measured.

T. brucei: 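Whole-parasite assay of Trypanosoma brucei over 72 hours; the read-out is not stated. Concentration: 30 µM. The record gives no direction; compounds that gave an IC50 in retests scored well above the rest, so higher reads as stronger inhibition. Values scatter widely below zero; nearly all retest evidence comes from the higher of the two concentrations used. Of about 64,000 compounds tested this way, about 940 (1.5%) reached 50% or more in at least one test.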
Leishmania in macrophages: 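Cell assay of Leishmania donovani living inside macrophages; the read-out is not stated. Tested at 30 µM. Direction is inferred from retests: higher values go with stronger inhibition. Size under these conditions: about 69,000 compounds, about 1,000 of them at 50% or above in at least one test.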

Compound,T. brucei,Leishmania in macrophages
CNc1cccc(C2CCCN(Cc3ncc[nH]3)C2)n1 (centres unmarked),-36.4,36.02
CC(C)n1cc2cc(NC(=O)Cn3cnnn3)ccc2n1,14.35,36.12
O=C(NCc1nncn1C1CC1)c1ccccc1Oc1cccnc1,-20.41,-9.174
COc1ccc([C@@H]2CN(C(=O)CCC(F)(F)F)C[C@H]2NC(C)=O)cc1,98.96,16.56
COCCc1noc(CN2CC(Cc3ccccc3)CC2=O)n1 (centres unmarked),-5.105,-6.975
CC(=O)Nc1c(C)noc1/C=C\c1ccc(S(=O)(=O)N2CCCC2)cc1,-3.484,-14.75
Cl.Cl.O=C(NCc1cncc2c1CCN(Cc1cccc(F)c1)C2)C1CC1,-24.05,-3.8
COc1ccccc1C(C)(C)NC(=O)NC1CCC(O)CC1 (centres unmarked),-15.64,-6.265
Cc1oncc1C(=O)N1CCC(O)(CN2CCOCC2)C(C)(C)C1 (centres unmarked),-40.07,22.16
Cc1nc(C)n(CC2CCCN2CC(=O)Nc2cccnc2)n1 (centres unmarked),-22.29,2.659
CC1=C(CCN2CC[C@@H](N3CCC(O)CC3)[C@H](O)C2)C(C)(C)CCC1,-12.12,56.28
Cc1n[nH]cc1C(=O)N1CCCC1c1cc[nH]n1 (centres unmarked),-4.049,12.29
CC(CN1CCC2(CC1)N=C(c1cccnc1)NC2=O)c1ccccc1 (centres unmarked),6.734,100.2
CC(C)c1cccc(NC(=O)Cn2c(=O)n(C)c(=O)c3sccc32)c1,-,-2.899
CCc1ccc(C(=O)N2CCCC(n3cncn3)C2)o1 (centres unmarked),13.97,-15.74
Cc1ccc(-c2nc(CN(Cc3cccs3)CC3CCCO3)no2)cc1 (centres unmarked),9.515,15.53
O=C(O)C(F)(F)F.[H][C@@]12CCN(S(=O)(=O)N(C)C)C[C@]1(COc1cccnc1)CCO2,1.525,1.523
CCNC(=O)N1CCc2ccc(NC(=O)NCCOCC)cc21,-28.56,0.3152
CC(=O)N1CCCC(c2ccc(C(N)=O)cn2)C1 (centres unmarked),16.08,8.248
CS(=O)(=O)N1CCCn2nc(CNc3ncccn3)cc2C1,-8.891,-1.269
COc1cccc(CN(C)c2ncc(C(N)=O)cc2Cl)c1,7.913,-8.015
Cc1cc(O)c(OCC(=O)/N=c2\[nH]cc(C)s2)cn1,15.39,13.79
COCC1CN(CCc2ccc(OC)c(OC)c2)Cc2c1cnn2C (centres unmarked),-2.73,17.84
COc1ccc(C(C)NC(=O)NCCc2ccc(C)nc2)c(OC)c1 (centres unmarked),-30.76,2.509
CCn1nc(CC(C)C)cc1C(=O)NCc1c(C)cc(C)nc1OC,10.71,-16.96
CN(CC1CCCCO1)c1ncnc2cc(F)ccc12 (centres unmarked),-50.88,-9.195
[H][C@@]12C[C@H](C(=O)N3CCOCC3)[C@@]([H])(CN(C(=O)Nc3ccccc3)C1)O2,-8.612,19.35
CCc1c(C(=O)NCC2CCS(=O)(=O)C2)cnn1-c1ccccc1 (centres unmarked),-20.44,-45.39
CCN(CC)S(=O)(=O)c1ccc2c(c1)N(Cc1cccnc1)C(=O)CS2,-6.844,-13.92
Oc1cccc(CNC2CCN(CCc3ccncc3)CC2)c1,-0.09296,7.34
Cc1cccc(-c2c[nH]c(C3CCCN3C(=O)c3cc(C)n[nH]3)n2)c1 (centres unmarked),-15.27,3.558
CN(CCOc1cccc(F)c1)Cc1nc2c(cnn2C)c(=O)[nH]1,-16.26,-14.25
COc1cc(CNC(C)Cn2cccn2)cc(Cl)c1OC.Cl (centres unmarked),1.518,29.92
Cc1nn(C)c(Oc2cccc(F)c2)c1NC(=O)C1CCCO1 (centres unmarked),-17.45,19.71
Cc1ccc(F)cc1C(=O)N1CCN(S(C)(=O)=O)[C@@H](C)C1,-28.61,19.36
COC(=O)c1ccc2nc(CO[C@H]3CN(CC4CC4)C[C@H]3F)[nH]c2c1,15.29,3.072
O=C(O)C(F)(F)F.[H][C@]12C[C@H](C(=O)NC)N(C)[C@@]1([H])CN(S(=O)(=O)c1cccc(C)c1)C2,-9.159,-20.55
CCN1CCn2c(C)cnc2C12CCN(C(=O)c1cscn1)CC2.O=C(O)C(F)(F)F.O=C(O)C(F)(F)F,-1.488,18.57
CNC(=O)CN1CCCC12CCN(C(=O)c1ccccc1F)CC2.O=C(O)C(F)(F)F,-13.45,34.3
[H][C@@]12CS(=O)(=O)C[C@]1([H])NCCN2C(=O)COc1ccccc1N1CCCC1,-55.45,16.48
O=C(c1ccccc1)N1CC2(CCNC2)OCc2ccccc21 (centres unmarked),-,23.45
Cc1cnc(CN2CC=C(c3c[nH]c4ncccc34)CC2)o1,-1.99,3.383
[H][C@]12CC[C@]([H])(C1)[C@H](NC(=O)C1(Oc3ccc(Cl)cc3)CCNCC1)C2,-0.2313,99.44
[H][C@]12CCN(C(=O)C3CCCO3)CC[C@@]1([H])S(=O)(=O)N(Cc1ccccc1)C2 (some centres unmarked),-68.11,7.19
[H][C@]12CN(C(=O)c3ccc(C)o3)C[C@@]1([H])OCCN(S(C)(=O)=O)C2,-19.28,11.21 and 1.874
CC(C)NC(=O)COc1nc(C(C)(C)C)no1,12.03,14.23
CCN(Cc1cnn(C)c1)C(=O)c1ccccc1O,4.211,1.495
CNCCNc1nccc(-c2cn(C)nc2C)n1,-7.529,0.417
CCc1nn(C)c(Cl)c1CN1CCN(c2nc(C(N)=O)cs2)CC1,-41.83,23.24
Cn1ccnc1-c1cn(CCCc2nnc(N)s2)nn1,-31.71,-42.66
Cc1[nH]nc(CCC(=O)N2CCc3c(nc[nH]c3=O)C2)c1C,-41.89,-33.11
CCNC(=O)NCc1ccccc1NS(=O)(=O)c1ccccc1,-9.368,29.01
Cc1csc(C2(NCC(O)COC(C)C)CCCC2)n1 (centres unmarked),-0.832,17.95

The last 5 entries again:

{"compound": "CCc1nn(C)c(Cl)c1CN1CCN(c2nc(C(N)=O)cs2)CC1", "T. brucei": -41.83, "Leishmania in macrophages": 23.24}
{"compound": "Cn1ccnc1-c1cn(CCCc2nnc(N)s2)nn1", "T. brucei": -31.71, "Leishmania in macrophages": -42.66}
{"compound": "Cc1[nH]nc(CCC(=O)N2CCc3c(nc[nH]c3=O)C2)c1C", "T. brucei": -41.89, "Leishmania in macrophages": -33.11}
{"compound": "CCNC(=O)NCc1ccccc1NS(=O)(=O)c1ccccc1", "T. brucei": -9.368, "Leishmania in macrophages": 29.01}
{"compound": "Cc1csc(C2(NCC(O)COC(C)C)CCCC2)n1", "stereo": "centres unmarked", "T. brucei": -0.832, "Leishmania in macrophages": 17.95}